These are yes or no findings as the source states them, for the method shown. In cells and extracts the contact can be indirect. Some entries that bind do so weakly or less than the wild type.
Biological target: p53 (human (endogenous in T24)) (UniProt P04637)
Assay: co-IP; endogenous JNK2 and p53 in T24 cells; lysis buffer 50 mM Tris-HCl pH 7.5, 150 mM NaCl, 1% Nonidet P-40, 0.5% sodium deoxycholate; antibody and protein-G beads at 4°C overnight; which protein was precipitated is not told

With “c-Jun N-terminal kinase-2 (JNK2) (from UniProt P45984 1-424)” the binding was “binds”.
